Test results from paper PMC10218176.
Results are given in words; binding and its absence hold for the method and conditions named. In cells and extracts the contact can be indirect. Some entries that bind do so weakly or less than the wild type.

Chains of the proteins cited; added tags and fusions are not shown.
UniProt Q15760: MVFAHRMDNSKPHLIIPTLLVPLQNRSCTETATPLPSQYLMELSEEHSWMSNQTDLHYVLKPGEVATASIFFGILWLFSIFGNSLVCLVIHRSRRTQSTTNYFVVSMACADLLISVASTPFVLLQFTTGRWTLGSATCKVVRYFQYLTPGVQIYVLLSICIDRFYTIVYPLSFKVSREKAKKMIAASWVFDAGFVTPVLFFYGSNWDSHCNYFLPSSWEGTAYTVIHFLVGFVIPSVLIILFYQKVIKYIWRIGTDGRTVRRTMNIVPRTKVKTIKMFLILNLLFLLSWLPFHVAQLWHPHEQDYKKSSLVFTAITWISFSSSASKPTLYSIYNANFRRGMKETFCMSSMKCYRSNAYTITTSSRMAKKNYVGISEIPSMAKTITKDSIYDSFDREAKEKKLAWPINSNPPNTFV
UniProt P60842: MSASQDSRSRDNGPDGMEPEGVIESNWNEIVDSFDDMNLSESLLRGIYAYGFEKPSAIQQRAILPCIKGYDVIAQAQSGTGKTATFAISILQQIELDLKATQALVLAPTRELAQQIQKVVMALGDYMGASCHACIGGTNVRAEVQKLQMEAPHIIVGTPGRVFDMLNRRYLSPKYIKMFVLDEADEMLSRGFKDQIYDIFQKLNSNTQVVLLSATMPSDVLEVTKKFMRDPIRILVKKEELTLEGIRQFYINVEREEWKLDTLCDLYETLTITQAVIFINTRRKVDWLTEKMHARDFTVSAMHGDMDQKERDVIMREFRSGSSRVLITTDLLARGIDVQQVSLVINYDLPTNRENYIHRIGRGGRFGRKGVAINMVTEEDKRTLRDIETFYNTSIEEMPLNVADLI
UniProt Q14676: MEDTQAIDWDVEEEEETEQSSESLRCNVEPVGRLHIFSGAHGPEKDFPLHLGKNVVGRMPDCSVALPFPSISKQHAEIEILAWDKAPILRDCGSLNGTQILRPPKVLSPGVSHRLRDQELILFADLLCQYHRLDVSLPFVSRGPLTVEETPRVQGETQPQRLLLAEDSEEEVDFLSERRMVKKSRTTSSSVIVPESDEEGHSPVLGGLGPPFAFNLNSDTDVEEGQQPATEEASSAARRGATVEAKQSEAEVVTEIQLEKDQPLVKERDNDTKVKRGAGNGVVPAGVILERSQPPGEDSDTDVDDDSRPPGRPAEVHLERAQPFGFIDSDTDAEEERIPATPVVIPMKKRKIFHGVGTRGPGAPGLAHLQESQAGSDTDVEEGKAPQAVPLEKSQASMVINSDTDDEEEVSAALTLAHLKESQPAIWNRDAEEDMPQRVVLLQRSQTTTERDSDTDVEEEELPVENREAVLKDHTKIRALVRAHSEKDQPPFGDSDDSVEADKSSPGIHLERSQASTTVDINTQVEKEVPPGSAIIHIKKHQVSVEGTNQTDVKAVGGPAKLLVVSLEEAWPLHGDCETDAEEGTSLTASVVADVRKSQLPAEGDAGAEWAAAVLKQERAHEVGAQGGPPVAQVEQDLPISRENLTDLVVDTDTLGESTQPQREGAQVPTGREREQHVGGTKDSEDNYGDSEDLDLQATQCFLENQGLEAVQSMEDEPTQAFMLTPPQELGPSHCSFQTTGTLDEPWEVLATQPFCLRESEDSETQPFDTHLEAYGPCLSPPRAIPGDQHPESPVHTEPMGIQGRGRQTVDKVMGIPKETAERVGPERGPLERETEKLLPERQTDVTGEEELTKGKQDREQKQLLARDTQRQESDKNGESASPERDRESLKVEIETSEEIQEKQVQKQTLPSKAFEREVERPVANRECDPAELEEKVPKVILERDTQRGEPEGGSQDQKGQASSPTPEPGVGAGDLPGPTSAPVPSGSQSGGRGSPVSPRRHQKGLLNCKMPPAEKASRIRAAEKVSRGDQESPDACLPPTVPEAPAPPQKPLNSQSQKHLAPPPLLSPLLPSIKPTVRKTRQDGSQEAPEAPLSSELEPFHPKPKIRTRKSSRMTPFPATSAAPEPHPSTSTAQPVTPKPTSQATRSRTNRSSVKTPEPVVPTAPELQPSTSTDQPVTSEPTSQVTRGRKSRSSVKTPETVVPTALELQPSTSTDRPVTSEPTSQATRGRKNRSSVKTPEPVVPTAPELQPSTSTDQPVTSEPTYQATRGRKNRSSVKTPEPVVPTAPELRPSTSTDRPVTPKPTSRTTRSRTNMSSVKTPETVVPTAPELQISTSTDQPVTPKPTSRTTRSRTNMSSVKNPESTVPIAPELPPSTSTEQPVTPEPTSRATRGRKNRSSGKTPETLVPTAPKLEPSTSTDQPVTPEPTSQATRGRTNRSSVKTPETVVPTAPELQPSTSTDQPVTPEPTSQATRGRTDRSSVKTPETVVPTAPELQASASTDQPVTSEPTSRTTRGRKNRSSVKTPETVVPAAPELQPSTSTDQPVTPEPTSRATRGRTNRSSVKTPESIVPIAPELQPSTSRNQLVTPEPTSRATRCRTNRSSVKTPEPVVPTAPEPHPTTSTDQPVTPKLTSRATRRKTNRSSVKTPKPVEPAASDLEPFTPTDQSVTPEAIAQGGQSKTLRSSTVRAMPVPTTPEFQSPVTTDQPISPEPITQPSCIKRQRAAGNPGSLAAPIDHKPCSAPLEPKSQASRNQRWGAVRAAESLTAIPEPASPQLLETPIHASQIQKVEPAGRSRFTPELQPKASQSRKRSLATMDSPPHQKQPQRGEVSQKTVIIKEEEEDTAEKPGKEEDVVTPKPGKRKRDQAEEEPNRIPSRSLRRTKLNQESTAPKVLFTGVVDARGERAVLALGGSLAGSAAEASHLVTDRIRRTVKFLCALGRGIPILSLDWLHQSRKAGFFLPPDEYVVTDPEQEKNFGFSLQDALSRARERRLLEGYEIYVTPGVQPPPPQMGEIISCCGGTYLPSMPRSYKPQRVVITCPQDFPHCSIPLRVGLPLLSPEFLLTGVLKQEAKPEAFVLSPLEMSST

B1: CBR1 (carbonyl reductase 1) (enzyme, UniProt P16152 1-277)
chain: MSSGIHVALVTGGNKGIGLAIVRDLCRLFSGDVVLTARDVTRGQAAVQQLQAEGLSPRFHQLDIDDLQSIRALRDFLRKEYGGLDVLVNNAGIAFKVADPTPFHIQAEVTMKTNFFGTRDVCTELLPLIKPQGRVVNVSSIMSVRALKSCSPELQQKFRSETITEEELVGLMNKFVEDTKKGVHQKEGWPSSAYGVTKIGVTVLSRIHARKLSEQRKGDKILLNACCPGWVRTDMAGPKATKSPEEGAETPVYLALLPPDAEGPHGQFVSEKRVEQW

target: hemagglutinin (3xHA)-N terminally tagged human GPR19 receptor (human) (UniProt Q15760); assay: co-IP; anti-HA immunoprecipitation of HA-tagged GPR19 from transfected HEK293 cells in low-detergent conditions, compared to mock transfected cells; blots of MDC1, PHB, CBR1, EIF4A1; control conditions and cells treated with Acesulfame K, low glucose or hydrogen peroxide

Row | Molecule | binding
1 | EIF4A1 (from UniProt P60842 1-406) | binds
2 | MDC1 (mediator of DNA damage checkpoint protein-1) (from UniProt Q14676 1-2089) | binds
3 | B1 | binds
